Measured values taken from the supplement of paper PMC11006884.
This is a selection; strong and weak results do not stand in their true shares.

Protein sequences, listed by entry. Tags and fused reporters are not part of them. Lines headed by an entry give the natural chain unless they say otherwise; changes in a name come on top.
UniProt Q9H6Z4: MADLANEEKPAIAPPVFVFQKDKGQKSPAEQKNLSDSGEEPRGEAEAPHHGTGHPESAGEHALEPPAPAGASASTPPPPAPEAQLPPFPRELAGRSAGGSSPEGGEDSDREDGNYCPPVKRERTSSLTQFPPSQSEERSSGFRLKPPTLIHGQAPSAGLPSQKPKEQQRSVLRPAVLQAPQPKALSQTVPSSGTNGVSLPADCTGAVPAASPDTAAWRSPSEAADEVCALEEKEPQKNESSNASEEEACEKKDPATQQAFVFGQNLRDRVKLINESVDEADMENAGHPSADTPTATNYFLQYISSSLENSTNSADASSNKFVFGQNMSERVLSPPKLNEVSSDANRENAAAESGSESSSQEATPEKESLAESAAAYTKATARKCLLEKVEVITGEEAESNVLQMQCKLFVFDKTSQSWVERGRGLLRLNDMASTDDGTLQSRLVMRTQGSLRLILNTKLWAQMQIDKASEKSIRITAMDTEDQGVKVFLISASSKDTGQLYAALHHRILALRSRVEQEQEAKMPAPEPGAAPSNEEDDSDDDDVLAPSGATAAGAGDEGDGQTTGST
UniProt Q9NSD9: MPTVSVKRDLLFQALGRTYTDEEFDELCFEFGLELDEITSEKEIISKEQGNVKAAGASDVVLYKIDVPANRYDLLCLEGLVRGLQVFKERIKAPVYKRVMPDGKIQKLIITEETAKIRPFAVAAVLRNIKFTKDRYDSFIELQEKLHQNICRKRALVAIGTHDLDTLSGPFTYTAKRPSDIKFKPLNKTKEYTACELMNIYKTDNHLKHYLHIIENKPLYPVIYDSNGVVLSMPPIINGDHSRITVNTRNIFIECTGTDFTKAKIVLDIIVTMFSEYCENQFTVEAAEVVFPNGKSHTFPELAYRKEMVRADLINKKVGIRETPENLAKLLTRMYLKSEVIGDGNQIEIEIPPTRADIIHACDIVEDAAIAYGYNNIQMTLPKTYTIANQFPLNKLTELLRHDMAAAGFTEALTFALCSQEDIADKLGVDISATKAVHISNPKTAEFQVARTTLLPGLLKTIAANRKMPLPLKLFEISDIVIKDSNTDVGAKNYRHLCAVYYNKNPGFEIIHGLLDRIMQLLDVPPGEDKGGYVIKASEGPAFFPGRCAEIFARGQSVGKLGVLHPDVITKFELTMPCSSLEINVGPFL
UniProt Q9H694: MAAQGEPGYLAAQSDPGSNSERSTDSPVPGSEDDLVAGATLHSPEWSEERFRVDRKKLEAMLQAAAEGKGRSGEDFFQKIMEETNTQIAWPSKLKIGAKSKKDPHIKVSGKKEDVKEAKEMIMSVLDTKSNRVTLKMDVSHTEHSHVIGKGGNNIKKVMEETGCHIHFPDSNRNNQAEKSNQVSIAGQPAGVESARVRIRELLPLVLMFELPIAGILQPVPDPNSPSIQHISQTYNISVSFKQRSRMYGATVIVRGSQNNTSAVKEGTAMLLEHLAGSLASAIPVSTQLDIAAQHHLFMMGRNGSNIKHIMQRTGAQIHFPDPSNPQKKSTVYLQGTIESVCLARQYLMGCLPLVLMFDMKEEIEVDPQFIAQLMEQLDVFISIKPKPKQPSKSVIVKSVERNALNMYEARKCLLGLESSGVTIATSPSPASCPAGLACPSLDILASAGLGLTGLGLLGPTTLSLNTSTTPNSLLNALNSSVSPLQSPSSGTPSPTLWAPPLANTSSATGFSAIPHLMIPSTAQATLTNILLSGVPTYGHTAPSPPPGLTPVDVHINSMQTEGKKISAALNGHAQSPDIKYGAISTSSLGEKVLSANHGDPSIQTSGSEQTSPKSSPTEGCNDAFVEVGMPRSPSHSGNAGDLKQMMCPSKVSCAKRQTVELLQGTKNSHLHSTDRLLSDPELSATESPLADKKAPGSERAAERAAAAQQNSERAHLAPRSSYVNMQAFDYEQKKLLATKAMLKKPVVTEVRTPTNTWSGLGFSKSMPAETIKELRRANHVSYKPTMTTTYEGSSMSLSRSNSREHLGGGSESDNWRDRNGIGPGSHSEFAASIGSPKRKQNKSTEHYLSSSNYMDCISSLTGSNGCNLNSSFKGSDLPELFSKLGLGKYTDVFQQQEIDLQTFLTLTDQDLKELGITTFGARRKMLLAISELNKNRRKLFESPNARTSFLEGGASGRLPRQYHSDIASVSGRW
UniProt Q9NQX3: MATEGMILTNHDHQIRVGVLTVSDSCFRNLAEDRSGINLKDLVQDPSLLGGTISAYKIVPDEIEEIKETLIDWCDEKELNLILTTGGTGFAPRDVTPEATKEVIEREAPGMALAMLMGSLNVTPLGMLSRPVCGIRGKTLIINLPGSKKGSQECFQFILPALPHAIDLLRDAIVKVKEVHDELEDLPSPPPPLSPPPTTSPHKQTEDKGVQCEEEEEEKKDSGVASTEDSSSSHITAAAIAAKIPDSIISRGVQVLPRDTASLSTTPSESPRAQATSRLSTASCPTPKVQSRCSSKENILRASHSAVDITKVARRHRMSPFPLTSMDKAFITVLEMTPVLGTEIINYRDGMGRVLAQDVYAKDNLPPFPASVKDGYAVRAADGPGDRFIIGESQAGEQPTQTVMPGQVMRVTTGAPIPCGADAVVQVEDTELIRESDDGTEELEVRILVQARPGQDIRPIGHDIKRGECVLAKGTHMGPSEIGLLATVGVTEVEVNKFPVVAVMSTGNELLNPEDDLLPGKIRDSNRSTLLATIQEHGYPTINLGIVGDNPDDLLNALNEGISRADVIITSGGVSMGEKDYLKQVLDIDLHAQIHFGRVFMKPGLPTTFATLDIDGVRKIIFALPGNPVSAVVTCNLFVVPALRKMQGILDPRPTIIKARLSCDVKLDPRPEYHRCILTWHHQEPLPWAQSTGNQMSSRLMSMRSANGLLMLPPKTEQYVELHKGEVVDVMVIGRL
UniProt Q9NQ29: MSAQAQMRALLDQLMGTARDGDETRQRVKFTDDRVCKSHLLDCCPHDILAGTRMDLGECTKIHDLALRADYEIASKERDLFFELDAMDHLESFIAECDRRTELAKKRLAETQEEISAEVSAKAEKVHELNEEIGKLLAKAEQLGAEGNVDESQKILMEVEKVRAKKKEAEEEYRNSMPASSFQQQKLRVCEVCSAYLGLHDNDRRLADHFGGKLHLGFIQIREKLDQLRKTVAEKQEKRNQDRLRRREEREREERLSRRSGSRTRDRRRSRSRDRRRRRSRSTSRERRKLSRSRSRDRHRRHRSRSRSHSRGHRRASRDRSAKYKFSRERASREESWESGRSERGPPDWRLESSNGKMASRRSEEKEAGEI
UniProt Q9H3U1: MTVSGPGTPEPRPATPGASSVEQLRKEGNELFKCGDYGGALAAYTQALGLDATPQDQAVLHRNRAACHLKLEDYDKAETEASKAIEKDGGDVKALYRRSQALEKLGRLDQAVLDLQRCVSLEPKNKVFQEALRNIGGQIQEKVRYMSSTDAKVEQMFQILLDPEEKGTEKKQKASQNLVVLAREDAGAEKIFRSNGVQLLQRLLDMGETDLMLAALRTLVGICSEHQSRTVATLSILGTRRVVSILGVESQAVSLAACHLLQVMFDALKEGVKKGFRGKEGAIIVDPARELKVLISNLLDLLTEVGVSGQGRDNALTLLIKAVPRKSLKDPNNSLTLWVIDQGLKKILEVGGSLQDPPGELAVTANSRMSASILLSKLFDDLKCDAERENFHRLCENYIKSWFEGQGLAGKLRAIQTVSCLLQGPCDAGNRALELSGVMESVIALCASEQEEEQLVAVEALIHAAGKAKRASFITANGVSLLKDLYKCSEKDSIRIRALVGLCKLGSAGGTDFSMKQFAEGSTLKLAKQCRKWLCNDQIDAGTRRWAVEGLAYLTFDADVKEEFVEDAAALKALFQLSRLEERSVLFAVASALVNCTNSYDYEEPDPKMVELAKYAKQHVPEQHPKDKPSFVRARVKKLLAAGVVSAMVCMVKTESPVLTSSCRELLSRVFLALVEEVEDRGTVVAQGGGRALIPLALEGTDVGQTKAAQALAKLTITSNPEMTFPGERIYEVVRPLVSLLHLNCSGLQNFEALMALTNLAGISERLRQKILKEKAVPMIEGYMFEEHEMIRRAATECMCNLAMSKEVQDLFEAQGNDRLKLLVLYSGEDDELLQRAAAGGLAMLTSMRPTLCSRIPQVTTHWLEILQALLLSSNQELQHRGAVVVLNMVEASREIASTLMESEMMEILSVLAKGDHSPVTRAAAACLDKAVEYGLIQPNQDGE
UniProt Q9HCG7: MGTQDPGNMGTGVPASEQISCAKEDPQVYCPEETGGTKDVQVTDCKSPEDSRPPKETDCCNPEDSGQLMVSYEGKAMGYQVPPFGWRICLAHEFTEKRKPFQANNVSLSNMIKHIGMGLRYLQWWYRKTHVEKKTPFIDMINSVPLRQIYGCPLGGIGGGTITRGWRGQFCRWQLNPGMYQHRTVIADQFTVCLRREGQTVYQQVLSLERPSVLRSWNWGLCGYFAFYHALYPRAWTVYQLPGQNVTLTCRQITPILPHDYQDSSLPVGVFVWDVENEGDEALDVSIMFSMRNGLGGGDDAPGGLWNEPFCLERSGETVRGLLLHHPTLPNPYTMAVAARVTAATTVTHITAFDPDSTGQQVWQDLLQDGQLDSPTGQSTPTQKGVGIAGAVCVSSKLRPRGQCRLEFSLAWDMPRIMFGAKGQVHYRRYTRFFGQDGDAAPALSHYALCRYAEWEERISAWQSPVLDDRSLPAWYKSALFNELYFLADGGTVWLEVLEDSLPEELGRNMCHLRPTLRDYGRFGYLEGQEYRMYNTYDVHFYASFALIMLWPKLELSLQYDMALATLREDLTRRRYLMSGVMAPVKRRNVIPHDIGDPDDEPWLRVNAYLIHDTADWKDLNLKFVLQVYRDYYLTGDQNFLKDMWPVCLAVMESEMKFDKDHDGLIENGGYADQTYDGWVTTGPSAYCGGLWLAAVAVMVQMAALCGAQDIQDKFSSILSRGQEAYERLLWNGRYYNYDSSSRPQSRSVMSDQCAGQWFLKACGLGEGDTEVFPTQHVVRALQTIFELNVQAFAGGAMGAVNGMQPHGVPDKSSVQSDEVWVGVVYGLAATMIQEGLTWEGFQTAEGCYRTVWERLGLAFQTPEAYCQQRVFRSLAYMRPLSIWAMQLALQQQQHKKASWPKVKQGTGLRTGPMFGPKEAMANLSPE
UniProt Q9H871: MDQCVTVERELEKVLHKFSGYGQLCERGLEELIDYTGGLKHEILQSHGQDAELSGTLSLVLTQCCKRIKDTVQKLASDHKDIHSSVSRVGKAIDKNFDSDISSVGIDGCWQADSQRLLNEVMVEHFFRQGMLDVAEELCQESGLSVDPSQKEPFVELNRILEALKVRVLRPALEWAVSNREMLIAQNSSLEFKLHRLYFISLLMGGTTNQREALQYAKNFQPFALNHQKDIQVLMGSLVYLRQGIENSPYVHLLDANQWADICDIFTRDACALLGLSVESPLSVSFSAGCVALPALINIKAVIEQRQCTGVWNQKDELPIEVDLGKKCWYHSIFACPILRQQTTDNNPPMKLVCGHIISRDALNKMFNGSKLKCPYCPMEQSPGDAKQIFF
UniProt Q9H6U6: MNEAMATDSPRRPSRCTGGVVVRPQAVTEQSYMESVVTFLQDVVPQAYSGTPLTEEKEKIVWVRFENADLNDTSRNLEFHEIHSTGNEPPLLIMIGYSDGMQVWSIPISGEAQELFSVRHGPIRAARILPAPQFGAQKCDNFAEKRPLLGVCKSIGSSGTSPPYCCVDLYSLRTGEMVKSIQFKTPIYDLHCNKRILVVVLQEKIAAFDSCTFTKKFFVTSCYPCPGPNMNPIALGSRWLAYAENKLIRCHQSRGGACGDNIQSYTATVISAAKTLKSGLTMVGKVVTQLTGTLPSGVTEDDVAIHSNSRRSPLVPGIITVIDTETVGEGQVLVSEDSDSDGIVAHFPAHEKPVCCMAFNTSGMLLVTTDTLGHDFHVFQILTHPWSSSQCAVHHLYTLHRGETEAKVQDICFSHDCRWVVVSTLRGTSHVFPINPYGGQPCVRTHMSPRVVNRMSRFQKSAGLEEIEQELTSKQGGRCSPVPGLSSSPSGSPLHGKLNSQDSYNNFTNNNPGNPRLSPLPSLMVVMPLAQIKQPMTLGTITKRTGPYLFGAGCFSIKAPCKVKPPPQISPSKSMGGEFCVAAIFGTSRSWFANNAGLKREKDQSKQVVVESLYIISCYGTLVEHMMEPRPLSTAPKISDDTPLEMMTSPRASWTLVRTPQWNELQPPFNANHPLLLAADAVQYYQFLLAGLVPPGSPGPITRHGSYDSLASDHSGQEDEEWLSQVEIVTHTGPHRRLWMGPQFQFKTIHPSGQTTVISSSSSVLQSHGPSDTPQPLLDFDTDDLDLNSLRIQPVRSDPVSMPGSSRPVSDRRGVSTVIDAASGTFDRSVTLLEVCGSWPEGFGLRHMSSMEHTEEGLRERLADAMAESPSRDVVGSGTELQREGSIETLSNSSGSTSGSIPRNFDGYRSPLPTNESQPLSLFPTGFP

compound: COC(=O)C#Cc1ccccc1 [methyl 3-phenylpropiolate]; assay: log2 ratio of iodoacetamide-alkyne labeling of the cysteine site, DMSO over compound (competition); higher = stronger covalent engagement of the cysteine by the compound, active = 1 or more; details: 500 µM; treatment time 1 h; system: HEK293T cell lysate
Procedure, shortened: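 For each cysteine, the log2 competition ratio is mean control-channel reporter intensity over mean compound-channel reporter intensity. HEK293T lysate (2 mg/mL) was exposed to vehicle or electrophile (500 µM, 1 h, ambient temperature), labelled with iodoacetamide alkyne (1 h), clicked to sCIP-TMT reagents, digested overnight with trypsin at 37 °C, streptavidin-enriched and analysed by Orbitrap Eclipse LC-MS/MS with FAIMS and FragPipe. Cysteines quantified in only one of three replicates, each with duplicate channels, were excluded.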

Row | Target | log2 ratio of iodoacetamide-alkyne labeling
1 | RANBP3 C203 (UniProt Q9H6Z4) | inactive: 0.21
2 | GRPEL1 C124 (UniProt Q9HAV7) | inactive: 0.145
3 | CLSPN C397 (UniProt Q9HAW4) | inactive: 0.187
4 | FARSB C418 (UniProt Q9NSD9) | inactive: -0.182
5 | SLC25A22 C25 (UniProt Q9H936) | inactive: -0.0128
6 | PNPLA8 C714 (UniProt Q9NP80) | inactive: 0.283
7 | ISYNA1 C541 (UniProt Q9NPH2) | inactive: 0.452
8 | MRPL46 C52 (UniProt Q9H2W6) | inactive: 0.499
9 | BICC1 C621 (UniProt Q9H694) | inactive: 0.525
10 | ACAD9 C179 (UniProt Q9H845) | inactive: 0.0482
11 | COPS7B C240 (UniProt Q9H9Q2) | inactive: 0.186
12 | GPHN C293 (UniProt Q9NQX3) | active: 1.12
13 | DDX21 C291 (UniProt Q9NR30) | inactive: 0.356
14 | LANCL2 C169 (UniProt Q9NS86) | inactive: 0.171
15 | CHD8 C2378 (UniProt Q9HCK8) | inactive: 0.191
16 | ANLN C71 (UniProt Q9NQW6) | inactive: 0.51
17 | SMC4 C110 (UniProt Q9NTJ3) | inactive: 0.456
18 | CD320 C67 (UniProt Q9NPF0) | inactive: 0.843
19 | UniProt Q9NQG6_C111 | inactive: 0.389

A few values from the list.
CD320 C67 (UniProt Q9NPF0) – log2 ratio of iodoacetamide-alkyne labeling: inactive: 0.843
UniProt Q9NQG6_C111 – log2 ratio of iodoacetamide-alkyne labeling: inactive: 0.389
ISYNA1 C541 (UniProt Q9NPH2) – log2 ratio of iodoacetamide-alkyne labeling: inactive: 0.452

Next records.

Row | Target | log2 ratio of iodoacetamide-alkyne labeling
20 | LUC7L C43 (UniProt Q9NQ29) | inactive: 0.236
21 | UNC45A C426 (UniProt Q9H3U1) | inactive: 0.396
22 | GBA2 C311 (UniProt Q9HCG7) | inactive: 0.239
23 | MBIP C243 (UniProt Q9NS73) | inactive: 0.661
24 | EXOSC4 C97 (UniProt Q9NPD3) | inactive: 0.533
25 | NOL6 C1034 (UniProt Q9H6R4) | active: 1.81
26 | UniProt Q9H871_C4 | inactive: 0.161
27 | JMJD4 C101 (UniProt Q9H9V9) | inactive: 0.898
28 | BCAS3 C836 (UniProt Q9H6U6) | inactive: 0.157
29 | MDN1 C4259 (UniProt Q9NU22) | inactive: -0.182
30 | CHD8 C1161 (UniProt Q9HCK8) | inactive: 0.0972
31 | XPO5 C1131 (UniProt Q9HAV4) | inactive: 0.415
32 | UTP3 C359 (UniProt Q9NQZ2) | inactive: 0.366
33 | STRN4 C562 (UniProt Q9NRL3) | inactive: 0.455
34 | SMC4 C271 (UniProt Q9NTJ3) | inactive: -0.564
35 | PNN C439 (UniProt Q9H307) | inactive: 0.082
36 | BIRC6 C1357 (UniProt Q9NR09) | inactive: -0.0125
37 | GPHN C26 (UniProt Q9NQX3) | inactive: -0.0135
